Where a chain is given by its changes, count along the chain named. Numbers in names are those of the source. Results are given in words; binding and its absence hold for the method and conditions named. In cells and extracts the contact can be indirect. Some results given as binding are weak or reduced against the parent protein; the word gives no strength.

Chains of the proteins cited; added tags and fusions are not shown.
UniProt P20152: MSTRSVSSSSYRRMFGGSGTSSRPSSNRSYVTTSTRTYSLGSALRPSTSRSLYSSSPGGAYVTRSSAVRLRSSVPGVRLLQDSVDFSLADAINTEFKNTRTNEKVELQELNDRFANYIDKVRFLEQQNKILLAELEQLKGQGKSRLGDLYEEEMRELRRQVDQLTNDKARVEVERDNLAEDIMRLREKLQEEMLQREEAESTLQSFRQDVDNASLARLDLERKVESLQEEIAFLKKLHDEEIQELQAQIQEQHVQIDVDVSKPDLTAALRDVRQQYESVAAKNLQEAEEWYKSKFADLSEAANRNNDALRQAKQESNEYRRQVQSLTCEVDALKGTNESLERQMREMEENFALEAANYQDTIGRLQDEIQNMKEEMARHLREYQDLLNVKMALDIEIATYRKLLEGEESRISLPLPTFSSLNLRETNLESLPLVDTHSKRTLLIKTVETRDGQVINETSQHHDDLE

The target of this experiment is vimentin (mouse lens) (mouse (endogenous in lens)) (UniProt P20152). The experiment can be described thus: co-IP; lens extracts of 12-week-old mice (50 mM Tris-HCl pH 7.4, 150 mM NaCl, 1 mM EDTA, 0.1% SDS); polyclonal anti-vimentin coupled to amino-link plus resin; precipitates blotted for αB-crystallin; control rabbit serum on resin.

B1: αB-crystallin (wild type, mouse lens) (protein, UniProt P23927 1-175)
chain: MDIAIHHPWIRRPFFPFHSPSRLFDQFFGEHLLESDLFSTATSLSPFYLRPPSFLRAPSWIDTGLSEMRLEKDRFSVNLDVKHFSPEELKVKVLGDVIEVHGKHEERQDEHGFISREFHRKYRIPADVDPLTITSSLSSDGVLTVNGPRKQVSGPERTIPITREEKPAVAAAPKK
As for B1, the binding entry is reported as “binds”.

B2: αB-crystallin R120G (knock-in mouse lens) (protein, UniProt P23927 1-175)
chain: B1 chain with R120G
For B2, the binding result was “binds”.
